Test results taken from the supplement of paper PMC12067093, “Discovery and optimisation of a covalent ligand for TRIM25 and its application to targeted protein ubiquitination” (Chemical Science, 2025).
This is one part of the list.

Amino acid sequences for entries named in this document (tags omitted). A change or cut given only in a name is not applied to a line headed by its entry.
UniProt Q9NSD9: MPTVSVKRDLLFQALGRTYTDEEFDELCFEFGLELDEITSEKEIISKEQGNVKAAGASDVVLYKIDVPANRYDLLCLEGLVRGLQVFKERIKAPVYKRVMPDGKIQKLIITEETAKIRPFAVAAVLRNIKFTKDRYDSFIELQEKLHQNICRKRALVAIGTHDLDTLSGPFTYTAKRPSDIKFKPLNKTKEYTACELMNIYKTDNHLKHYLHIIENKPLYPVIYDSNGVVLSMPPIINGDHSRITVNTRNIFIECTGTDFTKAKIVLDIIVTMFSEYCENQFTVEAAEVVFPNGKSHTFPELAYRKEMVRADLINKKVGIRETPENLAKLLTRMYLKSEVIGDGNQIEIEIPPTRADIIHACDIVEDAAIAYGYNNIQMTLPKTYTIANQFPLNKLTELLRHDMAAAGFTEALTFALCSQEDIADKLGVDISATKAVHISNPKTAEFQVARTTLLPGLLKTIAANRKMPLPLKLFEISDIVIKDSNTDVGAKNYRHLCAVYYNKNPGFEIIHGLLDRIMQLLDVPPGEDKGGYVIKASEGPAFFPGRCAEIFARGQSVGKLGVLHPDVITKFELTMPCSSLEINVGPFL
UniProt P09467: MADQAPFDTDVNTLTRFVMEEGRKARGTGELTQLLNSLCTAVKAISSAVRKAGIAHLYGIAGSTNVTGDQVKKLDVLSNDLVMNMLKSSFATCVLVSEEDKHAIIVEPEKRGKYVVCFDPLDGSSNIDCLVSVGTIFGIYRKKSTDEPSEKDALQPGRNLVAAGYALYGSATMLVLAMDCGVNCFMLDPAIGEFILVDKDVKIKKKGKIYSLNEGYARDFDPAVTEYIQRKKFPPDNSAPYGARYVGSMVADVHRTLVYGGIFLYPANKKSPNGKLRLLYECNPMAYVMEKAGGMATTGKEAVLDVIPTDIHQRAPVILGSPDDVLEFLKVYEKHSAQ
UniProt P49327, whole entry, looked up: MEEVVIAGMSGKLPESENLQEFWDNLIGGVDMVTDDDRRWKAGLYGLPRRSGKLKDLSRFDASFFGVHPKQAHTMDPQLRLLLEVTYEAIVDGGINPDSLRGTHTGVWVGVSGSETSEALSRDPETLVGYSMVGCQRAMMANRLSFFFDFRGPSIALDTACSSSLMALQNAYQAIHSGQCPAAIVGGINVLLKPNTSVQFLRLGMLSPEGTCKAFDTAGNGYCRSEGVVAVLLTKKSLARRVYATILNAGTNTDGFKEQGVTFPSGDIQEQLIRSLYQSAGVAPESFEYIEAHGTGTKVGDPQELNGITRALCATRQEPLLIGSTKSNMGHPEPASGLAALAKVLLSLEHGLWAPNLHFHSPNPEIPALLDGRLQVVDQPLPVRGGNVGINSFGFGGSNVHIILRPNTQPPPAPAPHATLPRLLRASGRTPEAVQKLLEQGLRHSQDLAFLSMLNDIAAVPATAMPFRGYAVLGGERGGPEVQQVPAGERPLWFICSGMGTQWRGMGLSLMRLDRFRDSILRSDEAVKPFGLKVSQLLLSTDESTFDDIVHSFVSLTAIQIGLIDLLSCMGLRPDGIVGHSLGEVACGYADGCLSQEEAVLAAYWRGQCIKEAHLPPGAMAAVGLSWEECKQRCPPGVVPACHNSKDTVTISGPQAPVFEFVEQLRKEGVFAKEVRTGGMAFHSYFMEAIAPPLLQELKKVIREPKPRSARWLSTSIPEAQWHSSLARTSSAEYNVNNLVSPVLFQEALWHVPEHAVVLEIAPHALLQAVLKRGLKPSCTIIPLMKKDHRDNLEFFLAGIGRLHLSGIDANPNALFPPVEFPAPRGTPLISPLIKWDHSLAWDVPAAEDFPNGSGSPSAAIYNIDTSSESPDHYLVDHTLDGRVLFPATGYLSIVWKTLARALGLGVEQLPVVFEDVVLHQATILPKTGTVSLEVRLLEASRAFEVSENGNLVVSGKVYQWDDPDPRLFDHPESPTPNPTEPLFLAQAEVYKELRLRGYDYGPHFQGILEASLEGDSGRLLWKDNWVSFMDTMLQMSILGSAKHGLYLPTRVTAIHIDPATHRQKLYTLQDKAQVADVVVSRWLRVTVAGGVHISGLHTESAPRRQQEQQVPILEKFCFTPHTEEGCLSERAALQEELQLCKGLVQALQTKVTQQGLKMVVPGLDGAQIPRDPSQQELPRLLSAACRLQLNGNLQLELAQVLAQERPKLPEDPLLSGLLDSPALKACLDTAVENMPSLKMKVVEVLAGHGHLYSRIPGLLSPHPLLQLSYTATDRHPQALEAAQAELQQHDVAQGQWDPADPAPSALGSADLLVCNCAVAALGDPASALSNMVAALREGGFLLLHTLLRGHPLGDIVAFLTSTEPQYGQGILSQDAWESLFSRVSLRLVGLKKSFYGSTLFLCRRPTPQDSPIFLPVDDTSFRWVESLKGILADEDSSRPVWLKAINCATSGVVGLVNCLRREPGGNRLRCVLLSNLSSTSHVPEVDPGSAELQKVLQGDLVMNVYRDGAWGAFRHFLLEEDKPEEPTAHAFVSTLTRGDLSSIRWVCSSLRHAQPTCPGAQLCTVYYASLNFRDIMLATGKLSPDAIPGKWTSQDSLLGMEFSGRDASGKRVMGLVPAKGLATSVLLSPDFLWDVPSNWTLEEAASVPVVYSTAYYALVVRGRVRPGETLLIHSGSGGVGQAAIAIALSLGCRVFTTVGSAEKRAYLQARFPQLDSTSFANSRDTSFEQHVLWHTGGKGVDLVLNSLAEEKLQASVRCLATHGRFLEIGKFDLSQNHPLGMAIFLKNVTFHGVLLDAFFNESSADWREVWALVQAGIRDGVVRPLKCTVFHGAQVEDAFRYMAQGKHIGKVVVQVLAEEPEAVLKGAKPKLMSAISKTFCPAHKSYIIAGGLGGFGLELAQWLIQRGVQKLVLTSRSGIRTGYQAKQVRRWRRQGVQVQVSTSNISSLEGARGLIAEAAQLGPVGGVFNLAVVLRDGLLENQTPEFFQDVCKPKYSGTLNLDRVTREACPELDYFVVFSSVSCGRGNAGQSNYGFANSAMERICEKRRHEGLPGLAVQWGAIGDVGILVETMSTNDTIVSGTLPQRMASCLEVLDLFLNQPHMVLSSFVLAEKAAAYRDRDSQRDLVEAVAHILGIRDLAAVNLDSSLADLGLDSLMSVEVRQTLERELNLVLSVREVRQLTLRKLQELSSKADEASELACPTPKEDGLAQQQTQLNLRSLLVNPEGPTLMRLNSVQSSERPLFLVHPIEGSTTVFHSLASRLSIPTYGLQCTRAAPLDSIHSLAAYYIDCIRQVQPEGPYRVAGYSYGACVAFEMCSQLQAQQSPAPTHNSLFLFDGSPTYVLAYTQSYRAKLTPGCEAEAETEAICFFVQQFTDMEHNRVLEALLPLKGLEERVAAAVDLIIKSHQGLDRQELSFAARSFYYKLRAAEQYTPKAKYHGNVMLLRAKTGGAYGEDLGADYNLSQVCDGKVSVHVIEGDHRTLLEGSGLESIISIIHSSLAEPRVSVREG
UniProt Q96AC1: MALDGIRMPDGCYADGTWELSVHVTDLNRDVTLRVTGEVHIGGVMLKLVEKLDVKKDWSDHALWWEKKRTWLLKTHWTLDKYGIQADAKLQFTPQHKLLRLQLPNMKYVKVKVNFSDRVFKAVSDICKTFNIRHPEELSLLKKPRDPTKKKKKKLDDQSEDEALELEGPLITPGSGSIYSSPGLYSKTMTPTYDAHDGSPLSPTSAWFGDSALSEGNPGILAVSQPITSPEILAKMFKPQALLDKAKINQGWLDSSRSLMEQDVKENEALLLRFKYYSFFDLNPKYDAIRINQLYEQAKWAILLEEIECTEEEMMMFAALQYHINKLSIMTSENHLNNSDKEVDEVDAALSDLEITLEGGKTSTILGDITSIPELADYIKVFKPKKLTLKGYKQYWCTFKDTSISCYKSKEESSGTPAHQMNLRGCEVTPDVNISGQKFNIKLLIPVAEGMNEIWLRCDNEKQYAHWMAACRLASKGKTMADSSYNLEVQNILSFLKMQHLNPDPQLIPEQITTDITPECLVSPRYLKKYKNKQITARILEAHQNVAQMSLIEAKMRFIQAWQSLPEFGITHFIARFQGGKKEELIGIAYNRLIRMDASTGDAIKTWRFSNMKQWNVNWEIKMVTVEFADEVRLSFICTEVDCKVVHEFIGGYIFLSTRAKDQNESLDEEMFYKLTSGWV
UniProt Q96K12: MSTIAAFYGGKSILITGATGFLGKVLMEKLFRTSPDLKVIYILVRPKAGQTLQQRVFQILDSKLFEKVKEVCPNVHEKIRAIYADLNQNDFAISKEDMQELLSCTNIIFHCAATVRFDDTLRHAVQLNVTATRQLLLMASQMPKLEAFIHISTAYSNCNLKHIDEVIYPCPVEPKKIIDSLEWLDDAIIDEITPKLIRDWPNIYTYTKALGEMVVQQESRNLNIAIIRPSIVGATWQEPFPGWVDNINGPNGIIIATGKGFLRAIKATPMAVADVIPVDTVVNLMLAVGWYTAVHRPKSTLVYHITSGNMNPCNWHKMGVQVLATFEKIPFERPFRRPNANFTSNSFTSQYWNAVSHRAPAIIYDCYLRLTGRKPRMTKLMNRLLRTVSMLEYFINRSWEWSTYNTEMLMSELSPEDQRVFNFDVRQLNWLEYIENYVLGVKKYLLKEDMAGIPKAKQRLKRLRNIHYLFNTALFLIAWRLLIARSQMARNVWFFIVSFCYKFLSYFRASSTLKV
UniProt Q9GZU8: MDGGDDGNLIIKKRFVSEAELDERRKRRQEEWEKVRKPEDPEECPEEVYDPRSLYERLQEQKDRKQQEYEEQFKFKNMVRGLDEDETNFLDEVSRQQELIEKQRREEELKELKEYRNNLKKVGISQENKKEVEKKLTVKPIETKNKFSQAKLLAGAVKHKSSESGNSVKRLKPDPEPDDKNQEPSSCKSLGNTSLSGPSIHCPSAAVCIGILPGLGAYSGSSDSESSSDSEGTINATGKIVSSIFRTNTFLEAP
UniProt Q8N0U4: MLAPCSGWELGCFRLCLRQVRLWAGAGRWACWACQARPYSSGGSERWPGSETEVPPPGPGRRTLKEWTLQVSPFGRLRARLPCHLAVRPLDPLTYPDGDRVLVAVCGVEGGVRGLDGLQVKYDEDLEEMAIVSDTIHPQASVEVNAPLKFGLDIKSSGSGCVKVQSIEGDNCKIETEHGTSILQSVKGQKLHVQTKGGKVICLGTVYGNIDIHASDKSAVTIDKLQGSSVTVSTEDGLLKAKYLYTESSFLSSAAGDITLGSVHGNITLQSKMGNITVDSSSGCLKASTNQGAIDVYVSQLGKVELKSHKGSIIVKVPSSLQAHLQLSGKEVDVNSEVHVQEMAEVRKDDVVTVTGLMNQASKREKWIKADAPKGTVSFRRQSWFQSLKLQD
UniProt O94868: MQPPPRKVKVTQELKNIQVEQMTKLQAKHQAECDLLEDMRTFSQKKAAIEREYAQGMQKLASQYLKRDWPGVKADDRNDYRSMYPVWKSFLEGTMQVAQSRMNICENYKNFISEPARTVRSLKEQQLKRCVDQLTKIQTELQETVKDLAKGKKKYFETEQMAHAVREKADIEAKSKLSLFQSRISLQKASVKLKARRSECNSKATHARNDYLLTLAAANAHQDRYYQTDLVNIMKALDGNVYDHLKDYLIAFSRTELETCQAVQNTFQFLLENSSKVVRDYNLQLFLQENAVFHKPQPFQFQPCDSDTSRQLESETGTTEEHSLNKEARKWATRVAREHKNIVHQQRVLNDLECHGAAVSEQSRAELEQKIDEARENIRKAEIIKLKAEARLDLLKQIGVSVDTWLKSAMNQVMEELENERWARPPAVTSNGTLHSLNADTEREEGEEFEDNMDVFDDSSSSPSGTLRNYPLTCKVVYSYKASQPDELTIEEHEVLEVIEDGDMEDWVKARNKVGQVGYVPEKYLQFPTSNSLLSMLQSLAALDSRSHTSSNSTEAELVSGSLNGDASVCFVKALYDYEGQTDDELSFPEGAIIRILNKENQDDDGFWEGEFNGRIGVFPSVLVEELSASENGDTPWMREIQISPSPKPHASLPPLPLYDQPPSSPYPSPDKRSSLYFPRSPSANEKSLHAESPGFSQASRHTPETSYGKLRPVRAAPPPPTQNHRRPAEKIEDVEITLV
UniProt Q9UK97: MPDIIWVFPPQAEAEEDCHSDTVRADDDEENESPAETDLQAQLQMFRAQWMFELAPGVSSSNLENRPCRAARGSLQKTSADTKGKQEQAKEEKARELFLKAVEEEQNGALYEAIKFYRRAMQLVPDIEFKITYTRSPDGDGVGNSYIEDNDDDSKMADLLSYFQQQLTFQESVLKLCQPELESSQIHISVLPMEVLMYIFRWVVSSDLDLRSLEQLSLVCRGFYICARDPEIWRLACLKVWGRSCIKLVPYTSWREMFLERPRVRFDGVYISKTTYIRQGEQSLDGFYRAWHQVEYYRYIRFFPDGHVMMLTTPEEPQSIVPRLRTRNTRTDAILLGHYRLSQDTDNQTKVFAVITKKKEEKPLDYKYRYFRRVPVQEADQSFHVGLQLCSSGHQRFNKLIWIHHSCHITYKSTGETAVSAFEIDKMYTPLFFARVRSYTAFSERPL

Compound: Cc1cc(ccc1-c1ccccc1)C(=O)N1CCCN(CC1)C(=O)CCl [compound 10]
Assay: probe-labelled cysteine peptide fold change vs DMSO (competition) (log2 fold change); higher = less target engagement (more negative = stronger competition)
Conditions: THP-1, incubation time: 4 h
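Note: competitive profiling in live THP-1 cells: cysteine peptides tagged with an iodoacetamide desthiobiotin (IA-DTB) probe, intensity after compound treatment relative to DMSO-treated cells.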

| Target | probe-labelled cysteine peptide fold change (10 µM) | probe-labelled cysteine peptide fold change (50 µM) |
| --- | --- | --- |
| FBN2_P35556_1812_AVDIDECK (UniProt P35556) | -0.0239 | -0.117 |
| FBXO38_Q6PIJ6_39_DYMNQLSHEVLCHIFR (UniProt Q6PIJ6) | 0.0115 | -0.111 |
| FARSB_Q9NSD9_255_NIFIECTGTDFTK (UniProt Q9NSD9) | 0.0691 | 0.25 |
| FBP1_P09467_39_GTGELTQLLNSLCTAVK (UniProt P09467) | 0.313 | 0.0646 |
| FBXO7_Q9Y3I1_286_RLQLLPESFICK (UniProt Q9Y3I1) | -0.0958 | 0.191 |
| FASN_P49327_630_EAHLPPGAMAAVGLSWEECK (UniProt P49327) | 0.236 | 0.167 |
| FARSB_Q9NSD9_76_IDVPANRYDLLCLEGLVR (UniProt Q9NSD9) | -0.0188 | 0.0236 |
| FASTKD1_Q53R41_733_VDFECILDK (UniProt Q53R41) | -0.294 | -0.226 |
| FERMT2_Q96AC1_426_GCEVTPDVNISGQK (UniProt Q96AC1) | -0.174 | -0.013 |
| FBXL6_Q8N531_476_DLEQALAAFLSTPGGSHPALCSLNLR (UniProt Q8N531) | 0.143 | -0.11 |
| FBXL15_Q9H469_255_HCHHVAESSLSR (UniProt Q9H469) | 0.0878 | -0.193 |
| FBXW8_Q8N3Y1_214_GAVSELEHVPDTVLCDVHSHDGVVIAGYTSGDVR (UniProt Q8N3Y1) | 0.0234 | 0.415 |
| FAM76B_Q5HYJ3_73+76_PCQYCNIIAAFIGTK (UniProt Q5HYJ3) | -0.0317 | -0.0972 |
| FAM208B_Q5VWN6_1432_LHGTQCEK (UniProt Q5VWN6) | -0.167 | -0.21 |
| FEM1B_Q9UK73_409_APDIECVLR (UniProt Q9UK73) | -0.32 | -0.925 |
| FAR2_Q96K12_313_STLVYHITSGNMNPCNWHK (UniProt Q96K12) | -0.126 | 0.116 |
| FCHSD1_Q86WN1_88_CLLDATVAGGQTR (UniProt Q86WN1) | -0.14 | -0.354 |
| FAM98B_Q52LJ0_220_INDALSCEYECR (UniProt Q52LJ0) | 0.0797 | -0.181 |
| FANCA_O15360_1120_NFCSHGGALTQDITAHFFR (UniProt O15360) | 0.00134 | -0.0214 |

| Target | probe-labelled cysteine peptide fold change (10 µM) | probe-labelled cysteine peptide fold change (50 µM) |
| --- | --- | --- |
| FBL_P22087_99_NVMVEPHRHEGVFICR (UniProt P22087) | -0.0461 | -0.116 |
| FANCD2_Q9BXW9_117_NCLLSCER (UniProt Q9BXW9) | -0.0291 | -0.134 |
| FES_P07332_8_GFSSELCSPQGHGVLQQMQEAELR (UniProt P07332) | -0.0348 | 0.0198 |
| FDPS_P14324_204_PGVGLDAINDANLLEACIYR (UniProt P14324) | 0.0693 | 0.199 |
| FAM192A_Q9GZU8_187_NQEPSSCK (UniProt Q9GZU8) | -0.339 | -0.474 |
| FER_P16591-3_23_DQLESGFGSQSCK (UniProt P16591) | -0.151 | -0.535 |
| FHL1_Q13642-1_276_FVFHQEQVYCPDCAK (UniProt Q13642) | 0.0179 | -0.0229 |
| FAR2_Q96K12_158_LEAFIHISTAYSNCNLK (UniProt Q96K12) | 0.0523 | 0.18 |
| FASN_P49327_135_DPETLVGYSMVGCQR (UniProt P49327) | -0.0348 | 0.0666 |
| FAM208A_Q9UK61_149_ACLVHNELLEK (UniProt Q9UK61) | -0.2 | -1.18 |
| FASN_P49327_2273_LSIPTYGLQCTR (UniProt P49327) | 0.0467 | 0.0413 |
| FAM185A_Q8N0U4_161_SSGSGCVK (UniProt Q8N0U4) | 0.0196 | 0.049 |
| FAM185A_Q8N0U4_284_MGNITVDSSSGCLK (UniProt Q8N0U4) | -0.292 | -0.685 |
| FGD3_Q5JSP0_284_QEVCGNLTLQHHMLEPVQR (UniProt Q5JSP0) | 0.00639 | -0.0624 |
| FAM160B1_Q5W0V3_78_APVTDTNIPSHLEQMLDILVQEENERESGETGPCMEYLLHHK (UniProt Q5W0V3) | 0.136 | 0.41 |
| FCHSD2_O94868_200_SECNSK (UniProt O94868) | -0.126 | -0.158 |
| FBXO9_Q9UK97_220_SLEQLSLVCR (UniProt Q9UK97) | 0.18 | 0.28 |
| FBXO30_Q8TB52_10_MEEELQHSHCVNCVSR (UniProt Q8TB52) | -0.34 | -0.361 |
